# Publication PMC5607287
# The chains behind the UniProt entries cited, without tags or fusion partners. Residues count along the entry.
# UniProt P46531, residues 19-2555: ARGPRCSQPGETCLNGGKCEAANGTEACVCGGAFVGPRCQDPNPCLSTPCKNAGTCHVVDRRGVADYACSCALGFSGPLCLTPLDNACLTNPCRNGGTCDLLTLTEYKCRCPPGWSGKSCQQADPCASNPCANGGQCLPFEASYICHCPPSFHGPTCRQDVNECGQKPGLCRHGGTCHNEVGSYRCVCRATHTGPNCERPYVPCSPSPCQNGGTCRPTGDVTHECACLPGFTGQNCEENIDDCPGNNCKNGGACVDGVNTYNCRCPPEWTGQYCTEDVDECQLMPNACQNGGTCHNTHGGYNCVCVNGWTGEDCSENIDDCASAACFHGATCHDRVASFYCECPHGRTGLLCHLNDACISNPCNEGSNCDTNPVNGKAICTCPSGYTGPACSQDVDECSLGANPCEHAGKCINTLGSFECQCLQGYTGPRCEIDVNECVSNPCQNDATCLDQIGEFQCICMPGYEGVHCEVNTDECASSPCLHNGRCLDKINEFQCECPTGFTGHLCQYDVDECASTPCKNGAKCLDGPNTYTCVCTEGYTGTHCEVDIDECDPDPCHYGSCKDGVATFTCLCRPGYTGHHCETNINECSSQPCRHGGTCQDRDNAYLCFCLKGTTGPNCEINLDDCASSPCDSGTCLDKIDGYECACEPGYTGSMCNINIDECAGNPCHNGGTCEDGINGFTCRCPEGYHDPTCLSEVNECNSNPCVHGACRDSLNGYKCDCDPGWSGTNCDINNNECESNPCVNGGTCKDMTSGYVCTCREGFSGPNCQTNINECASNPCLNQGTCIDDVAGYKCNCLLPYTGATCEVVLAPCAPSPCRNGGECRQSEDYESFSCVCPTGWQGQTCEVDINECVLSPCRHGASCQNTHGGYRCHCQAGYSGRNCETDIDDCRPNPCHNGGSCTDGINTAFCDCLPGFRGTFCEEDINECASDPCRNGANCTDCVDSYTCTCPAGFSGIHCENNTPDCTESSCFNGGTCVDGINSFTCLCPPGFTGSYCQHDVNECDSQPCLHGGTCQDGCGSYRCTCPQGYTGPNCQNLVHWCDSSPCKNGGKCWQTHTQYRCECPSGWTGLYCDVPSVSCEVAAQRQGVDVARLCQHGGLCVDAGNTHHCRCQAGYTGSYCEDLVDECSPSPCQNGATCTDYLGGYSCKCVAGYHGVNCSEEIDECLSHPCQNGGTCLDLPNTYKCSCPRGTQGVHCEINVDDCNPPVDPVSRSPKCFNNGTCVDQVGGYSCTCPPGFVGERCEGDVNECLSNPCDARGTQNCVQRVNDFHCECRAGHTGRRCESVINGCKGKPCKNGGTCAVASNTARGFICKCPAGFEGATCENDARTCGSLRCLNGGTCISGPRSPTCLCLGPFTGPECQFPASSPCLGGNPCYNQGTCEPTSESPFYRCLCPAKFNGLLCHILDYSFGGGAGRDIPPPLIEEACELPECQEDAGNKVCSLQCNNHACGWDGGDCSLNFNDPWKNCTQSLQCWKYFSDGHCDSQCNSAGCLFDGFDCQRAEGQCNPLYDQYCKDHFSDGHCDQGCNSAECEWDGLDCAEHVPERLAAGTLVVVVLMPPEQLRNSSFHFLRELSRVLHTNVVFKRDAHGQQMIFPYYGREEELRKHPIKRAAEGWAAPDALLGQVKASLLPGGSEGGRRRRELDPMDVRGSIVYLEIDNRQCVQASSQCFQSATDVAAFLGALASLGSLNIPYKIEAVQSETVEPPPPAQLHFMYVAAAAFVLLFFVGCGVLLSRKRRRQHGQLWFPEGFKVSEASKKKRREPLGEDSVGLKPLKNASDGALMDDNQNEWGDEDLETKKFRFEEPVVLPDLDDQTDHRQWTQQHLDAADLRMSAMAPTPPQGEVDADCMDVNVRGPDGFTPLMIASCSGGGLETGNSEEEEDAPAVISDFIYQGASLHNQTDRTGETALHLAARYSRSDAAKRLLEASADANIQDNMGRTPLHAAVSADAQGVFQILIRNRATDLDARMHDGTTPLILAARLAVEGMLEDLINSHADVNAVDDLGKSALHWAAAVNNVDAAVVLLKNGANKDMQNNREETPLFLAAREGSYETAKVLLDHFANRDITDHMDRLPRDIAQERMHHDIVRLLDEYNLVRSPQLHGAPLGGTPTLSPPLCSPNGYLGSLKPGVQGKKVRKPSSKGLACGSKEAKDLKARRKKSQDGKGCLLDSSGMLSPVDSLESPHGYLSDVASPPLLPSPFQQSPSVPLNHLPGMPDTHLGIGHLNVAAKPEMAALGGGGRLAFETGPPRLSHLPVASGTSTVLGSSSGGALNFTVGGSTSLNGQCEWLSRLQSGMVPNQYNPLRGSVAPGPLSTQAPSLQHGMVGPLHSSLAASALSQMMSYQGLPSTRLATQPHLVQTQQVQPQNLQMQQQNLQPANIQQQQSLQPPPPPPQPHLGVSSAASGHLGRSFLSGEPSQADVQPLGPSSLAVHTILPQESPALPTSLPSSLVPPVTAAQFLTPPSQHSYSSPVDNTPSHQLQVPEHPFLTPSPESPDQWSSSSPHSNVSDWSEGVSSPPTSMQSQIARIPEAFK
# UniProt P78504, residues 34-1067: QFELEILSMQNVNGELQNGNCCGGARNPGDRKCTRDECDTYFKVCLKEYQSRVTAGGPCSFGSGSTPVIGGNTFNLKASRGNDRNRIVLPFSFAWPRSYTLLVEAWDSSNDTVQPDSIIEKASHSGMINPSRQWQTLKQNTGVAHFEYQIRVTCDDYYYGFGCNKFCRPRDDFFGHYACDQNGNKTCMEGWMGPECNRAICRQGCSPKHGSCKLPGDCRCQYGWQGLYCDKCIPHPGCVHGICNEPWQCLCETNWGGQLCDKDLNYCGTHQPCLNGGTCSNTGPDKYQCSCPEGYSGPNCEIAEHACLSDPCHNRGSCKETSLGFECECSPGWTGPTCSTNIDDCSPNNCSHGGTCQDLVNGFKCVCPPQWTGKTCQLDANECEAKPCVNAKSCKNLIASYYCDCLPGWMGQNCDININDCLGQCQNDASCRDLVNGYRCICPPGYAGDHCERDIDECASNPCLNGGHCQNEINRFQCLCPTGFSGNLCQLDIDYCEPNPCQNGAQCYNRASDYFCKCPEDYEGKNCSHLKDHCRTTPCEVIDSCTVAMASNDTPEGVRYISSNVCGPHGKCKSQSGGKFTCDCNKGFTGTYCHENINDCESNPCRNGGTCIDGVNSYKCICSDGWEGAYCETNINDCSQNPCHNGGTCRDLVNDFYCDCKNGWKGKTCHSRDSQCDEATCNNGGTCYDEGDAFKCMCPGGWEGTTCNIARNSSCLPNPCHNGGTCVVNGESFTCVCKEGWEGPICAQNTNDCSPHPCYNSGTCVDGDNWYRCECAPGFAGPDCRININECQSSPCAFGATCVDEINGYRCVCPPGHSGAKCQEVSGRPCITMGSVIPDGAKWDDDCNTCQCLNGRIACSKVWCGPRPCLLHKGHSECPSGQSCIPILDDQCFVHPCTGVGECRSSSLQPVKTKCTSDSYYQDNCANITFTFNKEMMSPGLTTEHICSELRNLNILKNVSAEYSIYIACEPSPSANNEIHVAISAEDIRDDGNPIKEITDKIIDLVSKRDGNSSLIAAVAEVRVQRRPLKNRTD
# No constants are given. Whether binding was seen depends on the method and setting. Some binding calls cover weakened binding; strength is not graded here.
# Target: human Notch1 transiently expressed in HEK293 cells (HEK293-hN1) (human) (UniProt P46531)
# Experiment: flow cytometry on cells; competition: Notch1 transfected HEK293 cells preincubated with 20 uM binders 1 h on ice, then 2 nM JAG1-Fc or DLL4-Fc 1 h; APC anti-Fc; Amnis ImageStream; only the binder purified
substance,measurement,value
human recombinant JAG1-Fc (from UniProt P78504 34-1067) (Fc fusion),binding,binds
